Results are given in words; binding and its absence hold for the method and conditions named. In cells and extracts the contact can be indirect. For some assays here: A result given as binding can be weak or reduced; the word gives no strength.
Tests used:
Flag-Merlin isoform 2 = assay: co-IP
[1] = molecular target: GST-fusion of the N-terminal half of Merlin containing the FERM domain; assay: pull-down

binding (Flag-Merlin isoform 2): binds
binding [1]: no binding
B1: TAT-SF1 (endogenous) (protein, UniProt O43719 1-755)
chain: MSGTNLDGNDEFDEQLRMQELYGDGKDGDTQTDAGGEPDSLGQQPTDTPYEWDLDKKAWFPKITEDFIATYQANYGFSNDGASSSTANVEDVHARTAEEPPQEKAPEPTDARKKGEKRKAESGWFHVEEDRNTNVYVSGLPPDITVDEFIQLMSKFGIIMRDPQTEEFKVKLYKDNQGNLKGDGLCCYLKRESVELALKLLDEDEIRGYKLHVEVAKFQLKGEYDASKKKKKCKDYKKKLSMQQKQLDWRPERRAGPSRMRHERVVIIKNMFHPMDFEDDPLVLNEIREDLRVECSKFGQIRKLLLFDRHPDGVASVSFRDPEEADYCIQTLDGRWFGGRQITAQAWDGTTDYQVEETSREREERLRGWEAFLNAPEANRGLRRSDSVSASERAGPSRARHFSEHPSTSKMNAQETATGMAFEEPIDEKKFEKTEDGGEFEEGASENNAKESSPEKEAEEGCPEKESEEGCPKRGFEGSCSQKESEEGNPVRGSEEDSPKKESKKKTLKNDCEENGLAKESEDDLNKESEEEVGPTKESEEDDSEKESDEDCSEKQSEDGSEREFEENGLEKDLDEEGSEKELHENVLDKELEENDSENSEFEDDGSEKVLDEEGSEREFDEDSDEKEEEEDTYEKVFDDESDEKEDEEYADEKGLEAADKKAEEGDADEKLFEESDDKEDEDADGKEVEDADEKLFEDDDSNEKLFDEEEDSSEKLFDDSDERGTLGGFGSVEEGPLSTGSSFILSSDDDDDDI

Source: publication doi:10.1101/717769
